From US7846971B2, “N-halogenated amino acids, N,N-dihalogenated amino acids and derivatives; compositions and methods of using them” (Novabay Pharmaceuticals, Inc., priority 2005, dated 2010)

Test system: Primary Human Skin Fibroblasts
Assay: XTT cytotoxicity assay on primary human skin fibroblasts
Format: cell-based
Protocol: Cytotoxicity was assessed by a colorimetric assay system, initially described by Scudiero et al., using 3′-(phenylamino-carbonyl)-3,4-tetrazolium-bis (4-methoxy-6-nitro) benzene sulfonic acid hydrate (XTT), ProCheck™ cell viability assay (Evaluation of a soluble tetrazolium/formazan assay for cell growth and drug sensitivity in culture using human and other tumor cell lines described by Scudiero D A, Shoemaker R A H, Paul K D, Monks A, Tierney S, Nofziger T H, Currens M J, Seniff D, Boyd M R. Cancer Res. 1988 Septmeber 1;48(17):4827-33). Similar approaches for determining the cell viability are used by other investigators. Three cell types were used: mouse lung epithelial cells (L929), primary human skin fibroblast and primary human keratinocyte cells cultured in Dulbecco Modified Eagle's Medium and Keratinocyte defined medium with corresponding growth factors plus antibiotics. Cells were trypsinized and counted under the microscope and seeded at 1000-to-2000 cells per well of a flat-bottom 96-well plate. Cells were allowed to grow over-night at 37° C. Next day, tissue culture media was removed and cells were rinsed with fresh media 1× and then left in 50 μL of tissue culture media. […] Absorbance was read at 450 nm with reference wavelength at 750 nm using Molecular Device ThermoMax Plate reader, blanking the plate on the medium-only assay blank wells. […]

O=S(=O)(O)CCN(Cl)Cl [NNDCT, N,N-dichlorotaurine]
range of cell toxicity relative to range of antimicrobial activity (0.9% saline, pH 3.5, toxicity in the mM range): 1000 fold
therapeutic index (TI), IC50 over MBC (Table 2): about 5,000
